Source: patent publication US5668107A, “Compositions and methods for inhibiting elastase” (The UAB Research Foundation, priority 1995, dated 1997)
At least one structure is not confirmed: it was looked up by name or label, or the drawing left a doubt. Where no end group is shown, it is not given here.

Target: Chymotrypsin (Bos taurus, UniProt P00766)
Assay: Serine protease assay with p-nitroanilide substrate, chymotrypsin
Format: biochemical
Settings: chymotrypsin as the subject enzyme
Experimental: Serine protease assays were performed using p-nitroanalide amide substrates. Trypsin activity was assayed by using Benzyl-PHE-VAL-ARG-PNA (0.5 mg/ml). Chymotrypsin activity was assayed by using SUC-(ALA)2 -PRO-PHE-PNA (SEQ ID NO:5) (10 mg/ml in DMSO). Elastase activity was assayed by using SUC-(ALA)3 -PNA (10 mg/ml in DMSO). The dilution of each of these enzymes required to produce a change in absorbance of approximately 0.4 after a 15 min incubation at 37° C. was initially determined. The complete reaction mixture contained 10 μls of this enzyme dilution plus 100 μls of the appropriate above substrate and 0-50 uls of the indicated concentration of inhibitor or TBS to maintain constant volume. Trypsin, chymotrypsin, and HNE assays were incubated at 37° C. for 15 min, while pancreatic elastase assays were incubated at 37° C. for 1.5 min. The reaction was terminated by the addition of a sufficient quantity of ice cold TBS to bring each assay up to a final volume of 1 ml. The absorbance of the p-nitroaniline produced was measured against a distilled water blank at 410 nm on a Hitachi model 100-40 spectrophotometer. Percent inhibition was calculated as: 100-[(A1 E+I/A1 E)×100].

Sequence: MFLEAIPMSIPPQVKFNKPFVFLMIEQNTKSPLFMGKVVNPTQK [chemically synthesized SPAAT]
- Ki: 7.5 µM
